No constants are given. Whether binding was seen depends on the method and setting. Binding seen in cells or lysates may run through a third protein. Some binding calls cover weakened binding; strength is not graded here.
T1: SEC62 (human (endogenous in A498)) (UniProt Q99442)
T1 sequence: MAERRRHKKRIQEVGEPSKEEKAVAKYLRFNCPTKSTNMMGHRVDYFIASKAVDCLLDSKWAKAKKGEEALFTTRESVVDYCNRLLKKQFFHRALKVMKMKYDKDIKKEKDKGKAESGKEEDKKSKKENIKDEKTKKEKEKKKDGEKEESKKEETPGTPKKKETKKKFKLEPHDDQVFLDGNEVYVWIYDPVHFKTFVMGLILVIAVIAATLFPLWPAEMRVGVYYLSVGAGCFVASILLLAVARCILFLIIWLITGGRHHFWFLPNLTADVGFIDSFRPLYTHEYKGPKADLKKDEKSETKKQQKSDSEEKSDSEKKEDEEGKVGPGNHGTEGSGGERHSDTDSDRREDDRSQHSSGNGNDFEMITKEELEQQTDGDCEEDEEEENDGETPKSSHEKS

Sequences of proteins named here, by UniProt entry; tags and fusion partners are left off.
UniProt P35222: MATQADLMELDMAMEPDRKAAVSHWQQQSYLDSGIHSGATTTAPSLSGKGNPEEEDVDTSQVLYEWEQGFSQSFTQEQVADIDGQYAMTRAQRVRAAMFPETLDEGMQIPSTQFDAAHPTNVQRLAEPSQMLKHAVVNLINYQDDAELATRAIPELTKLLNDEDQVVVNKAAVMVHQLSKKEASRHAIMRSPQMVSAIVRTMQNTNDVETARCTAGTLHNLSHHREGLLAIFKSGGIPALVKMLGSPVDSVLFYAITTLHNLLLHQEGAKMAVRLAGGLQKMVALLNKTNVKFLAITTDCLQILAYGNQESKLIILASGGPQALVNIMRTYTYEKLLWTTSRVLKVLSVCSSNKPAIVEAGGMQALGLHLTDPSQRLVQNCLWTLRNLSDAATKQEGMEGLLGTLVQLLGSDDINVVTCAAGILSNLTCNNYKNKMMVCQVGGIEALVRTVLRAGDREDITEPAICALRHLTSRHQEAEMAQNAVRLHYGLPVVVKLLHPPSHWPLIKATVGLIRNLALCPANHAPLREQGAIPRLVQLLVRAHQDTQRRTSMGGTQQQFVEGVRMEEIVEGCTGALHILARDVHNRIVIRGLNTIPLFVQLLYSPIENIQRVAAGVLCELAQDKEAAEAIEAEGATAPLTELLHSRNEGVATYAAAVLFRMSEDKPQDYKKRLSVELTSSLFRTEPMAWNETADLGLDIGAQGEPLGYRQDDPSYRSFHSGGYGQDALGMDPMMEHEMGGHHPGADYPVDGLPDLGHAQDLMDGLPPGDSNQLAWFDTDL


Target: T1, SEC62 (human (endogenous in A498))
Experiment: co-IP; endogenous IP from A498 cell lysate with anti-SEMA6A, anti-SEC62 or IgG and protein A/G beads, 4 °C overnight; IP buffer 100 mM NaCl, 20 mM Tris-HCl pH 8.0, 0.5 mM EDTA, 0.5% NP-40; immunoblot; for SEC62 with β-catenin also cells stably expressing con-shRNA or SEMA6A-shRNA, vector or FLAG-SEMA6A

binding | Molecule
binds | β-catenin (from UniProt P35222 1-781)
binds | SEMA6A (protein, UniProt Q9H2E6 19-1030) GFPEDSEPISISHGNYTKQYPVFVGHKPGRNTTQRHRLDIQMIMIMNGTLYIAARDHIYTVDIDTSHTEEIYCSKKLTWKSRQADVDTCRMKGKHKDECHNFIKVLLKKNDDALFVCGTNAFNPSCRNYKMDTLEPFGDEFSGMARCPYDAKHANVALFADGKLYSATVTDFLAIDAVIYRSLGESPTLRTVKHDSKWLKEPYFVQAVDYGDYIYFFFREIAVEYNTMGKVVFPRVAQVCKNDMGGSQRVLEKQWTSFLKARLNCSVPGDSHFYFNILQAVTDVIRINGRDVVLATFSTPYNSIPGSAVCAYDMLDIASVFTGRFKEQKSPDSTWTPVPDERVPKPRPGCCAGSSSLERYATSNEFPDDTLNFIKTHPLMDEAVPSIFNRPWFLRTMVRYRLTKIAVDTAAGPYQNHTVVFLGSEKGIILKFLARIGNSGFLNDSLFLEEMSVYNSEKCSYDGVEDKRIMGMQLDRASSSLYVAFSTCVIKVPLGRCERHGKCKKTCIASRDPYCGWIKEGGACSHLSPNSRLTFEQDIERGNTDGLGDCHNSFVALNGHSSSLLPSTTTSDSTAQEGYESRGGMLDWKHLLDSPDSTDPLGAVSSHNHQDKKGVIRESYLKGHDQLVPVTLLAIAVILAFVMGAVFSGITVYCVCDHRRKDVAVVQRKEKELTHSRRGSMSSVTKLSGLFGDTQSKDPKPEAILTPLMHNGKLATPGNTAKMLIKADQHHLDLTALPTPESTPTLQQKRKPSRGSREWERNQNLINACTKDMPPMGSPVIPTDLPLRASPSHIPSVVVLPITQQGYQHEYVDQPKMSEVAQMALEDQAATLEYKTIKEHLSSKSPNHGVNLVENLDSLPPKVPQREASLGPPGASLSQTGLSKRLEMHHSSSYGVDYKRSYPTNSLTRSHQATTLKRNNTNSSNSSHLSRNQSFGRGDNPPPAPQRVDSIQVHSSQPSGQAVTVSRQPSLNAYNSLTRSGLKRTPSLKPDVPPKPSFAPLSTSMKPNDACT

Source: article PMC9899268
